Measurements: patent US20260124191A1, “HISTONE DEACETYLASE INHIBITOR AND USES THEREOF” (NANJING HONGSHUN PHARMACEUTICAL TECHNOLOGY CO., LTD, priority 2023, published 2026)
At least one structure is not confirmed: it was looked up by name or label, or the drawing left a doubt.

The molecules below were run on HDAC (assay: HDAC inhibitory activity assay (FRET)). Conditions: test concentration 100 nM; relative to DMSO control.
Format: biochemical
Description: The HDAC inhibitory activity of the synthesized compounds was determined by fluorescence resonance energy transfer (FRET), and then compared with that of the positive control to screen out compounds with better activity. HDAC was obtained by purification or purchased directly.
The method was as follows.
An enzyme was added to reaction wells, a reaction buffer was added to control wells, a sample dissolved in DMSO was added to the reaction wells, and the wells were incubated using a contactless nanoflow sonic pipetting system (Ech-550; nanoflow). A fluorescent substrate was added to each reaction well and then rotated and shaken. The wells were incubated for 1-2 h at 30° C. under a sealed condition. A TMP26-containing chromogenic agent was added to terminate the reaction and produce fluorescence. The fluorescence intensity was detected using En Vision multi-label microplate detector (Perkin Elmer) (excitation light: 490 nm, emitted light: 520 nm). After the stabilization of color development, the endpoint value was read. The percentage (relative to the DMSO control group) inhibition rate was calculated using the software GraphPad Prism 4.

SMILES | Inhibition rate
O=C(CCCCN1C(=O)C/C(=C\c2ccccc2)C1=O)N[C@H]1CCCC[C@@H]1O [Example I-14, 8-(3-((E)-benzal)-2,5-diketopyrrolidinyl)-N-((1S,2S)-2-hydroxycyclohexyl)decoylamide] | 0%
O=C(CCCCCCCN1C(=O)C/C(=C\c2ccccc2)C1=O)NO [Example I-5] | 84.8% ± 2.1%
O=C(CCCCCN1C(=O)C/C(=C\c2ccccc2)C1=O)NO [Example I-3] | 77.8% ± 1.2%
